Experiments:
Type in all cases: cell-based
[1] = test system: 2102EP-R cells; test: XTT cell viability assay, 2102EP-R (cisplatin-resistant); settings: Homo sapiens
Description: (§1) The following cell lines were used 2102EP, 2102EP-R, NCCIT, NCCIT-R (all ECs), TCam2 (seminoma cell line), FS1 (Sertoli cell line) and MPAF (human adult fibroblast cell line). Cells were cultivated as described previously. In brief, the ECs were cultivated in Dulbecco’s modified Eagle’s medium (DMEM) supplemented with 10% fetal bovine serum (FBS), 1% penicillin–streptomycin and […] L-glutamine. FS1 cells were grown in DMEM supplemented with 20% FSB, 1% penicillin–streptomycin, 200 mM L-glutamine and 1% nonessential amino acids (NEAA). MPAF cells were cultured in DMEM supplemented with 10% FBS, 1% penicillin–streptomycin, 200 mM L-glutamine and 1% NEAA. TCam2 cell line was cultured in RPMI medium supplemented with 10% FBS, 1% penicillin–streptomycin and […] L-glutamine. All cell lines were kept at 37 °C and 7.5% CO2. 2102EP and NCCIT were a kind gift from Prof. Dr. L. Looijenga (Princess Máxima Center for Pediatric Oncology, Utrecht, The Netherlands). Cisplatin-resistant lines 2102EP-R and NCCIT-R were obtained from PD Dr. F. Honecker (Breast and Tumor Center, ZeTup Silberturm, St. Gallen, Switzerland). MPAFs were a kind gift from […] (Bonn University, Institute of Reconstructive Neurobiology, Bonn, Germany). FS1 cells were obtained from Prof. Dr. V. Schumacher (Boston Children’s Hospital, Department of Urology; Harvard Medical School, Department of Surgery, Boston, MA, USA).
(§2) The assay was performed based on the reduction in XTT tetrazolium salt as described previously. In summary, 3000 cells were seeded per well of a 96-well cell culture plate in 100 µL of cell culture medium. The next day, cells were treated with CDK inhibitor or CDK degrader for 24/48/72 h. […] For readout, absorption was measured at 450 nm and 650 nm. Specific XTT signal (450 nm) was subtracted by nonspecific absorbance (650) and blank (cell culture medium). Averages of technical triplicates were calculated, and treated sample was referenced to the corresponding dimethyl sufoxide (DMSO) control. […]

[2] = test system: NCCIT cells; test: XTT cell viability assay, NCCIT; settings: Homo sapiens
Description: as §1, §2

[3] = test system: TCam2 cells; test: XTT cell viability assay, TCam2; settings: Homo sapiens
Description: as §1, §2

[4] = test system: TGCT cell lines; test: XTT cell viability assay, summarised over TGCT tumor cell lines; settings: Homo sapiens, 72 h, read-out: IC50 at 72 h, range over tumor cell lines
Description: The following cell lines were used 2102EP, 2102EP-R, NCCIT, NCCIT-R (all ECs), TCam2 (seminoma cell line), FS1 (Sertoli cell line) and MPAF (human adult fibroblast cell line). Cells were cultivated as described previously. In brief, the ECs were cultivated in Dulbecco’s modified Eagle’s medium (DMEM) supplemented with 10% fetal bovine serum (FBS), 1% penicillin–streptomycin and […] L-glutamine. FS1 cells were grown in DMEM supplemented with 20% FSB, 1% penicillin–streptomycin, 200 mM L-glutamine and 1% nonessential amino acids (NEAA). MPAF cells were cultured in DMEM supplemented with 10% FBS, 1% penicillin–streptomycin, 200 mM L-glutamine and 1% NEAA. TCam2 cell line was cultured in RPMI medium supplemented with 10% FBS, 1% penicillin–streptomycin and […] L-glutamine. All cell lines were kept at 37 °C and 7.5% CO2. 2102EP and NCCIT were a kind gift from Prof. Dr. L. Looijenga (Princess Máxima Center for Pediatric Oncology, Utrecht, The Netherlands). […]
as §2, with “previously.” for “previously. In summary, 3000 cells were seeded per well of a 96-well cell culture plate in 100 µL of cell culture medium. The next day, cells were treated with CDK inhibitor or CDK degrader for 24/48/72 h.”

[5] = test system: FS1 cells; test: XTT cell viability assay, FS1 Sertoli control; settings: Homo sapiens
Description: as §1, §2

[6] = test system: NCCIT-R cells; test: XTT cell viability assay, NCCIT-R (cisplatin-resistant); settings: Homo sapiens
Description: as §1, §2

[7] = test system: 2102EP cells; test: XTT cell viability assay, 2102EP; settings: Homo sapiens
Description: as §1, §2

[8] = test system: MPAF cells; test: XTT cell viability assay, MPAF fibroblast control; settings: Homo sapiens
Description: as §1, §2

IC50 [4]: 0.8 to 4.3 nM
SMILES: CCc1cnn2c(NCc3ccc[n+]([O-])c3)cc(N3CCCC[C@H]3CCO)nc12 [Dinaciclib, dinaciclib]
IC50 ([1]; 24 h): 102 nM
IC50 ([1]; 48 h): 2 nM
IC50 ([1]; 72 h): 1.1 nM
IC50 ([2]; 24 h): 594 nM
IC50 ([2]; 48 h): 21.8 nM
IC50 ([2]; 72 h): 1.5 nM
IC50 ([3]; TCam2, 24 h): 35.1 nM
IC50 ([3]; TCam2, 48 h): 11.5 nM
IC50 ([3]; TCam2, 72 h): 1.6 nM
IC50 ([5]; FS1, 24 h): 393 nM
IC50 ([5]; FS1, 48 h): 85.7 nM
IC50 ([5]; FS1, 72 h): 14.3 nM
IC50 ([6]; 24 h): 315 nM
IC50 ([6]; 48 h): 19.6 nM
IC50 ([6]; 72 h): 4.3 nM
IC50 ([7]; 24 h): 76.8 nM
IC50 ([7]; 48 h): 3.4 nM
IC50 ([7]; 72 h): 0.8 nM
IC50 ([8]; 24 h): > 1000 nM
IC50 ([8]; 48 h): > 1000 nM
IC50 ([8]; 72 h): > 1000 nM
